Results as given in the supplement of paper PMC3334620.
The full ranking holds about 33,000 sequences; the median of “E-score (-0.5 to 0.5)” is about -0.0014, and the highest 2% start at about 0.25. Some of the results follow.

Biological target: T1, Cad1 (UniProt P24813)
T1 sequence: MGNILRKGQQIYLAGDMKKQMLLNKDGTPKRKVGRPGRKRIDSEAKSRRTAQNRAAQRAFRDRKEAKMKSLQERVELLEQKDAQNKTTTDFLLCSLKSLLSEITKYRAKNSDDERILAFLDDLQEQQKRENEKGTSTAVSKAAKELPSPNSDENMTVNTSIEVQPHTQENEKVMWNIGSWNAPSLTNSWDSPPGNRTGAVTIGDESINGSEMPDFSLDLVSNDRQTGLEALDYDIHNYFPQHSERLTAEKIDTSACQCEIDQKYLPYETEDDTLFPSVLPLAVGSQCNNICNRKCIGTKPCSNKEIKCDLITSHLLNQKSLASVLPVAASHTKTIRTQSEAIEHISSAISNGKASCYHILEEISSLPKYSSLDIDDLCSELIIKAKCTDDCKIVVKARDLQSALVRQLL
Assay: PBM E-score (8-mer binding enrichment) (E-score (-0.5 to 0.5)); higher = stronger / more preferred TF binding
Conditions: protein concentration: 100 nM; construct: GST-full length
How it was run: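 For each ungapped eight-base word taken together with its reverse complement, the Universal PBM Analysis Suite assigned an E-score. Binding data came from GST-tagged yeast transcription factors, applied at about 100-200 nM, on universal all-10-mer Agilent arrays made double-stranded by primer extension. Fluorescent anti-GST marked bound protein, and scans were normalised with masliner.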

Sequence | PBM E-score
CAGGGGCA | -0.0406
CTCCTTCA | -0.151
AGGGATAT | 0.0686
CTCATGAA | 0.0604
AGTTTGTG | -0.0199
ATAAACAA | 0.261
GCGTAACA | 0.151
AATTTGCA | 0.0123
GTCAAACA | -0.0631
CCCATGGC | -0.202
GTCCCGTA | -0.203
ATCCACGG | 0.0648
CCGTATCC | 0.0238
CATGTGCC | -0.0619
AATTTAAC | 0.124
CACACTAC | -0.00395
AAGATGTC | -0.188
AATCGTGT | 0.039
AAGTTTGA | 0.0388
CACGAGCC | -0.209
ACGTCCGA | -0.0154
AGTCTTAC | -0.112
AGCTTGCA | 0.177
AACTCGGA | -0.0153
AGACGTCA | -0.096

Sequence | PBM E-score
CTTTCCAA | -0.0504
AAGCACAT | 0.254
CGTATTCC | 0.0639
GCAGACCC | -0.294
CATGGTGG | -0.17
GATCCGAC | -0.0611
ACTCGGCT | -0.0579
CGGCAGCC | -0.0555
AGTCCATA | -0.0182
AATCTTAC | 0.15
CTTGCGGC | 0.0936
CTCCAGGC | -0.0803
ATGCGACA | 0.106
ACACCCTC | -0.231
GGCCGGCC | -0.0682
CTTCTGCA | -0.0629
GCGAACGA | 0.00243
AATCCCGG | -0.0443
GGCAGCAA | -0.0553
ACAATTTA | 0.0347
GAATCTGA | -0.178
TCACACAA | -0.0186
AACGCACG | 0.201
CCGAACTC | 0.00655
AGTGCAGG | -0.0292

Sequence | PBM E-score
GGCTGTCA | -0.11
ACAGGGAG | -0.139
ACTCTCAT | 0.0485
AGCGGAAA | 0.139
CCATGTAA | 0.0299
AGATACCA | 0.221
TAAGGCAA | -0.0649
ATACCTTA | 0.0486
AGTCATTG | -0.0467
CCACGGCA | -0.0783
TCAGGCCA | -0.00554
AGTGTTAG | 0.144
AGAGATTA | 0.156
CATAGGAG | -0.108
ACTAACCA | 0.111
GCGCCTAA | 0.139
ACCCGACG | -0.039
AAATCCTA | 0.0288
AGAACCGG | 0.0207
ACGCCTCC | -0.214
ATCCCCAG | -0.15
CACCGAAA | 0.12
CTCACAGC | -0.0648
ATCTGCGG | 0.145
ACCAATTG | 0.165

Sequence | PBM E-score
ATCTGAAT | 0.0633
CCCGGCGC | -0.212
CCGTTGCC | -0.137
AGGGGGAG | -0.418
AGCCGTTG | 0.101
ACTGAAGA | 0.00909
ACAGAATA | 0.167
GAATACAC | -0.034
GCTGTTCA | 0.094
AGGTTACA | -0.0399
GCAAGTGA | 0.116
TAGGACAA | 0.0366
GCCACCTA | -0.167
AATCCAAA | 0.188
CCCGTGGC | -0.2
AATTCACG | -0.0495
GTGCAGCA | -0.141
CATGGGCA | -0.0527
GTACCCCA | -0.0917
CTACGTCC | -0.163
ACAGGGCT | -0.168
GGGCTTAC | 0.0166
AAGGTGTG | 0.0581
CCCCTCAA | -0.269
ACGTAGCC | -0.235

Sequence | PBM E-score
ATTTAAGA | 0.0745
ACATTACC | 0.0384
ATTAGCCA | 0.0977
ACCTCGAA | -0.0571
ACAGGAAA | 0.155
ACATGATA | 0.203
CCGGGGAC | -0.235
GTCTATCA | 0.074
CATCCCTA | 0.0256
CCTACTGC | -0.208
GTCTACAC | 0.0321
ACCGGAAG | 0.192
AGAGCTAT | -0.254
AATATCCG | 0.265
GTCAGTAA | 0.166
AACTAACA | 0.0943
CGAGCGAC | 0.0243
AAGCATCT | -0.00694
AGTAACCA | -0.0106
AACCACTC | -0.00576
ACAATTGT | 0.133
ACCTATGA | -0.202
CCCTATCA | -0.129
AACTTTTC | 0.0431
AACTGGGC | -0.128

Exported as tab-separated lines: entries from further up
Sequence	PBM E-score
ATTAGCCA	0.0977
ACCTCGAA	-0.0571
ACAGGAAA	0.155
ACATGATA	0.203

Continued:

Sequence | PBM E-score
AGGGCCGG | -0.261
AAGTAGGG | -0.025
CAACCTAC | -0.00641
AACATCCC | -0.0301
GGGACGCA | -0.149
AATTGACC | 0.135
CGCACTAG | -0.0891
CTATCCCC | -0.263
CAGTATTA | 0.15
ACGAGAAT | 0.167
AAACTGCA | -0.0777
CGCTCTAG | -0.307
CAGGACGA | -0.0504
AGGTTCCC | -0.216
AAGTCGGT | -0.0478
GCGCTAAA | 0.0685
GTTCGTTA | 0.176
CGATTTAG | 0.17
GGCACTAC | -0.18
GAGTCGCC | -0.308
ACTATTCC | 0.196
ATGTGCGG | -0.00079
GGTACTGA | -0.173
CGGTTGAG | 0.0874
GGCGTTGA | -0.0438

Sequence | PBM E-score
CAACACAG | 0.165
GTTACTGA | 0.086
GGCCGAGA | -0.0552
TGCTGGAA | 0.104
ACCTTGCC | -0.149
ACGCCAAC | -0.081
AGAACACG | 0.0405
AACGCGTA | 0.00524
CGCGTTTC | -0.129
AGCGGTGC | -0.105
GATATTAC | 0.293
AGGTGTAG | -0.128
CATGCAGA | 0.115
AATCGTAT | 0.17
AGCGGCAC | -0.0682
CTAGGCTA | -0.119
AAATATTC | 0.249
GGGTAACC | -0.147
CGAGTAAA | 0.126
AAATAGAA | -0.0638
GTCTGGGA | -0.0272
CCCTTGGC | -0.249
AAAAGCTG | -0.116
ACAAACAT | 0.145
CGAACGGA | 0.0674

Four entries from above in a different format.
Sequence	PBM E-score
CAACACAG	0.165
GTTACTGA	0.086
GGCCGAGA	-0.0552
TGCTGGAA	0.104

Later entries:

Sequence | PBM E-score
AATAATGT | 0.155
CACATGAC | -0.0022
ATTCAGTA | 0.0848
ACACGGGT | -0.018
ATGTCTTA | 0.0553
CCAGCTAA | -0.0477
CCAGAGTC | -0.0683
GTAACGCA | 0.0889
GACCGGCA | -0.123
GTGATGAA | 0.0512
ACCTACAC | -0.134
GTAATGCA | -0.0933
TCCCAAGA | 0.0234
GACCCGGA | -0.0615
CCAAGTGC | -0.229
GGAATCAA | 0.127
ACACGCCC | -0.0578
GACATGGC | -0.116
CATACCCG | -0.0972
GAGTACAA | 0.0249
CCCGAGCA | -0.0974
CGGACAAC | 0.216
ATAGTGAA | 0.117
CCGCAAAC | 0.156
TACCCAAA | 0.00386

4 records drawn at random from the list so far:
Sequence | PBM E-score
ACCTACAC | -0.134
CCAGAGTC | -0.0683
GTAATGCA | -0.0933
TACCCAAA | 0.00386

Continued.

Sequence | PBM E-score
GGGGTGAC | -0.274
CTGAGTTC | 0.0925
CTCACTCC | -0.15
CTAAGTCC | -0.247
GCACGCGA | 0.0766
ACGAGGTA | 0.0795
AAATATTA | 0.298
CCGTCGAA | 0.1
ATCAATCC | -0.0665
ATAGTCCA | 0.117
AGCATCAG | -0.0302
CCGATTGC | 0.25
CATATTTC | 0.0121
CGTTCCCA | -0.167
CAACAATG | 0.14
CCCCATAG | -0.102
GTGGACAC | 0.00261
CCACCGAG | -0.072
GCGCGAGC | 0.0306
